Measurements as given in PubChem BioAssay AID588590 (National Center for Advancing Translational Sciences (NCATS), 2011).
Hit rate of the full screen: of about 390,000 compounds, about 4,000 (1%) were called active. The inconclusive results got no clear call from the source; some entries with a clear call stand among them for comparison. The call rests on the fitted dose curve; in most records, active means well fitted inhibition curve with a large enough effect; inconclusive means small, poorly fitted or top-dose-only effect, or another doubt; inactive means no such curve, though single readings can be large or run the other way. Where the call is inconclusive, the potency comes from a doubtful curve fit. Starred links: 1 amine or outer side, 2 acyl side, 3 side chain; linkers in the order of their positions; H or OH if unused. Non-standard residues stand in square brackets, D forms with d. Residues, ends and D or L forms follow the SMILES beside them. ξ: configuration not given here. X1 = CCCCCCC[C@H](O)C[C@@H](N[*:1])[C@@H](O)C(=O)[*:2]; X3 = COc1ccc(CCCC(N[*:1])C(=O)[*:2])cc1; ξThr(3R) = C[C@@H](O)C(N)C(=O)O; NMeN = CN[C@@H](CC(N)=O)C(=O)O; X2 = C/C=C(/N[*:1])C(=O)[*:2]; Dhb = C/C=C(\N)C(=O)O; Sar = CNCC(=O)O

Chains of the proteins cited; added tags and fusions are not shown. Lines headed by an entry give the natural chain unless they say otherwise; changes in a name come on top.
UniProt Q9UNA4: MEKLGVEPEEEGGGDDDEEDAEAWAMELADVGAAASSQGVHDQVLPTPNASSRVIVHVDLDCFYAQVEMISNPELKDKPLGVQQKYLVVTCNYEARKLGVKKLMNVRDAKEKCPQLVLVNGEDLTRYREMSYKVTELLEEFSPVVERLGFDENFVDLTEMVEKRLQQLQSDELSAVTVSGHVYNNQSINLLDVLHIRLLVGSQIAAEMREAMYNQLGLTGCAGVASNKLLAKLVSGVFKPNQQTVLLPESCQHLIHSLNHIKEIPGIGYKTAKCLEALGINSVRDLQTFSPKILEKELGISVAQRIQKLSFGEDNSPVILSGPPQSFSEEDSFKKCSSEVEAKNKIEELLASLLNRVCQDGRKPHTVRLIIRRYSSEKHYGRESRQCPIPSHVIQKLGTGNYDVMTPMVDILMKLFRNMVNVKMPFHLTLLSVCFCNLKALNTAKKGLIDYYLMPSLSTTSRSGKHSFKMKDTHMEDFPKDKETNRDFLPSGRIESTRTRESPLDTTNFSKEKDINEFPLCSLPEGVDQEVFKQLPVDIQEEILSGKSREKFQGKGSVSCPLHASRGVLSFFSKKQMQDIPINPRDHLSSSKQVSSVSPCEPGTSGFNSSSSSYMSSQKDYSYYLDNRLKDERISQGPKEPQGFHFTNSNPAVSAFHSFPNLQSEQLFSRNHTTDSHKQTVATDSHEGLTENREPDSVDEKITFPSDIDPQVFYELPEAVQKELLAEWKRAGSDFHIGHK

Molecular target: DNA polymerase iota (Homo sapiens) (UniProt Q9UNA4)
Experiment: qHTS for Inhibitors of Polymerase Iota
Conditions: Pol iota fluorescent replication assay, 10 min; series mostly up to 115 µM
Method in brief: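 Fluorescent replication assay read twice, at 0 min and 10 min after adding 50 nM (final) substrate. Enzyme (10 nM) and compounds were first incubated 15 min at room temperature; enzyme-free buffer wells were negative controls.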
Potency means the concentration at half of the fitted maximal effect.

Row | SMILES | Potency
1 | CCn1nc(-c2ccccc2)c(-c2ccccc2)c(C(=O)Nc2nc(C)c(C(C)=O)s2)c1=O | inconclusive: 70.8 µM [inhibitor, partial curve, poor fit]
2 | Cc1ccc(NC(=O)c2cc(S(=O)(=O)NC3CCCCC3)ccc2F)cc1Cl | inconclusive: 79.4 µM [inhibitor, single point]
3 | CC(/C=C1\SC(=S)N(NS(=O)(=O)c2ccc(C)cc2)C1=O)=C\c1ccccc1 | inconclusive: 20 µM [inhibitor, full curve]
4 | O=C(COC(=O)/C=C/c1cc(Br)ccc1F)Nc1ccc2[nH]c(=O)[nH]c2c1 | inconclusive: 25.1 µM [inhibitor, partial curve, poor fit]
5 | Cc1ccc2c(c1)-c1onc(C(=O)N3CCN(c4cc(Cl)ccc4C)CC3)c1CO2 | inactive
6 | CCOCCCNC(=O)C(NC(=O)c1ccc(NC(C)=O)cc1)c1ccc(C)cc1 (centres undefined) | inconclusive: 79.4 µM [inhibitor, single point]
7 | O=C(CSc1ncn(-c2ccccc2)n1)Nc1nc2ccccc2s1 | inactive
8 | COc1cc(OCc2ccccc2)c2c(CCC(=O)O)cc(=O)oc2c1 | inconclusive: 89.1 µM [inhibitor, partial curve, poor fit]
9 | O=C(O)c1cnn(-c2ccccc2)c1-c1ccncc1 | inconclusive: 25.1 µM [inhibitor, full curve, poor fit]
10 | COc1cc(C(=O)Nc2ccc(C)cc2)c2ccccc2n1 | inconclusive: 25.1 µM [inhibitor, single point]
11 | CC(=O)O[C@]1(C(C)=O)CC[C@H]2C3C=C(Cl)C4=CC(=O)[C@@H]5C[C@H]5[C@]4(C)C3CC[C@@]21C (some centres undefined) | inconclusive: 1.41 µM [inhibitor, full curve, poor fit]
12 | COc1cccc(CNC(=O)COC(=O)C2CCN(c3ccc(C(F)(F)F)cn3)CC2)c1 | inconclusive: 79.4 µM [inhibitor, partial curve, poor fit]
13 | CN(Cc1ccccn1)C(=O)C1CCC(=O)N(CCc2ccc(Cl)cc2)C1 (centres undefined) | inconclusive: 44.7 µM [inhibitor, partial curve, poor fit]
14 | COc1ccc(NC(=O)Nc2nnc(-c3ccncc3)s2)cc1 | inactive
15 | CN(C)c1nc2c(Br)c(Br)c(Br)c(Br)c2[nH]1 | inconclusive: 6.31 µM [inhibitor, full curve, poor fit]
16 | CC1CCCCC12NC(=O)N(CC(=O)N1CCN(S(=O)(=O)Cc3ccccc3)CC1)C2=O (centres undefined) | inconclusive: 70.8 µM [inhibitor, single point]
17 | COc1ccccc1CNC(=O)c1ccc2nc(CCc3ccccc3)oc2c1 | inconclusive: 22.4 µM [inhibitor, full curve, poor fit]
18 | COc1ccc(-c2nc(SCC(=O)Nc3c(C)cc(C)cc3C)n[nH]2)cc1 | inactive
19 | O=C(CNC(c1ccccc1)c1ccccc1)Nc1ccccc1F | inconclusive: 79.4 µM [inhibitor, single point]
20 | COc1cccc(C(=O)/C=C/Nc2ccc(S(=O)(=O)Nc3cnc4ccccc4n3)cc2)c1 | inconclusive: 112 µM [inhibitor, single point]
21 | CCOC(=O)c1c2c3c(cccc3n(C)c1=O)C(=O)c1ccccc1-2 | inconclusive: 22.4 µM [inhibitor, single point]
22 | CC(C)c1ccc2oc(-c3ccc(N)cc3)nc2c1 | inconclusive: 4.47 µM [inhibitor, full curve, poor fit]

Row | SMILES | Potency
23 | O=C(CSc1ncc(S(=O)(=O)c2ccc(Cl)cc2)c(=O)[nH]1)Nc1cccc(C(F)(F)F)c1 | inconclusive: 79.4 µM [inhibitor, partial curve]
24 | Cc1ccc(N=C2NC(=O)/C(=C/C=C/c3ccco3)S2)cc1C | active: 11.2 µM
25 | COc1ccccc1NC(=O)c1c(C)cc(C)nc1SCC(=O)c1ccc(Cl)cc1 | inactive
26 | OC(c1ccc(Cl)cc1)c1nccc2ccccc12 (centres undefined) | inconclusive: 70.8 µM [inhibitor, single point]
27 | Cc1cc(=O)oc2c3c(cc(OCC(=O)N4CCC(C(=O)O)CC4)c12)OC(C)(C)CC3 | inactive
28 | CCn1cc2nc(SCC(=O)Nc3ccccc3C(F)(F)F)n(Cc3ccc(C)cc3)c(=O)c2n1 | active: 44.7 µM
29 | O=C(O)c1nsc(Cl)c1Cl | inconclusive: 25.1 µM [inhibitor, single point]
30 | Cc1c(NC(=O)Nc2cc(F)c(F)cc2Cl)c(=O)n(-c2ccccc2)n1C | inconclusive: 15.8 µM [inhibitor, partial curve, poor fit]
31 | C/C=C1\NC(=O)[C@H](CC(N)=O)N(C)C(=O)C([C@@H](C)O)NC(=O)C(CCCc2ccc(OC)cc2)NC(=O)[C@H](C(C)C)NC(=O)/C(=C\C)NC(=O)[C@H](O)[C@@H](C[C@@H](O)CCCCCCC)NC(=O)[C@H](C)NC(=O)CN(C)C(=O)[C@H](CCC(N)=O)NC1=O (stereo partly drawn) (cyclo(A[X1][X2]V[X3][ξThr(3R)][NMeN][Dhb]Q[Sar])) | inconclusive: 25.1 µM [inhibitor, partial curve]
32 | CCSc1nnc(NC(=O)CSc2sc3c(O)cc(=O)[nH]c3c2C#N)s1 | active: 3.55 µM
33 | CC(C)OC(=O)c1ccc(N2C(=O)C3CC=CCC3C2=O)cc1 (centres undefined) | inactive
34 | CC(=O)Nc1cccc(/C(C)=N/NC(=O)c2ccc(O)cc2)c1 | inconclusive: 79.4 µM [inhibitor, partial curve, poor fit]
35 | C#CCSc1nc2sc3c(c2c(=O)n1C)CCC3 | active: 25.1 µM
36 | CC(=O)Nc1ccc2c(COC(=O)[C@H](C)N3C(=O)C4CCCCC4C3=O)cc(=O)oc2c1 (some centres undefined) | inconclusive: 63.1 µM [inhibitor, partial curve, poor fit]
37 | Cc1ccc2nc(N3CCN(c4ccccc4)CC3)c(C=O)c(=O)n2c1 | inconclusive: 79.4 µM [inhibitor, single point]
38 | C/C1=C\CCC2C(/C=C(\C)CC1)OC(=O)C2CN1CCCCC1 (centres undefined) | inconclusive: 89.1 µM [inhibitor, partial curve]
39 | O=C1c2ccc3c4c(ccc(c24)C(=O)N1c1cccc(O)c1)CC3 | inconclusive: 79.4 µM [inhibitor, partial curve, poor fit]
40 | C=CCc1ccc(OCCOCCOc2ccc(C)cc2[N+](=O)[O-])c(OC)c1 | inconclusive: 3.16 µM [inhibitor, full curve, poor fit]
41 | COc1cccc2c(SCC(=O)N/N=C/c3ccccc3)cc(C)nc12 | inactive
42 | CC(=O)n1c(Cl)c(NC(=O)CCl)c2ccccc21 | inconclusive: 14.1 µM [inhibitor, full curve, poor fit]
43 | Cc1cc(C(=O)O)ccc1N/C=C1\CCCC(C)C1=O (centres undefined) | inactive
44 | O=C(c1ccc(S(=O)(=O)Cc2cc(F)ccc2F)c([N+](=O)[O-])c1)N1CCCC1 | inconclusive: 25.1 µM [inhibitor, partial curve, poor fit]

Row | SMILES | Potency
45 | C=CCn1c(Cc2nc3ccccc3[nH]2)n[nH]c1=S | inconclusive: 12.6 µM [inhibitor, full curve, poor fit]
46 | COc1ccc(C(=O)N/C(=C\c2ccco2)C(=O)OCc2ccco2)cc1 | inconclusive: 31.6 µM [inhibitor, partial curve, poor fit]
47 | Cc1ccccc1N=C/C=C1\N(C)c2ccccc2C1(C)C | inconclusive: 39.8 µM [inhibitor, single point]
48 | O=S1(=O)CCOC[C@H](c2ccccc2)N1Cc1ccc(F)cc1 | inactive
49 | Cc1ccc2c(CC(=O)NCC(=O)Nc3c(C)cccc3C)coc2c1 | inconclusive: 35.5 µM [inhibitor, full curve]
50 | CCc1cc2c(=O)n(Cc3ccco3)c(SCC(=O)NC3CCS(=O)(=O)C3)nc2s1 (centres undefined) | inconclusive: 50.1 µM [inhibitor, partial curve]
51 | O=C(Cc1cccs1)N(c1ccccc1)C1C=CS(=O)(=O)C1 (centres undefined) | active: 56.2 µM
52 | Cc1cccc(NC(=O)Nc2cccc3ccccc23)c1 | inactive
53 | c1ccc(-c2nn3c(-c4ccco4)nnc3s2)nc1 | inconclusive: 22.4 µM [inhibitor, full curve, poor fit]
54 | CCN(CC)C(=O)CN(C#N)c1nc(Cl)nc(N(C)C)n1 | inactive
55 | COc1ccc(-c2[nH]ncc2CN(C)Cc2cccnc2)c(OC)c1 | inconclusive: 2.51 µM [inhibitor, partial curve, poor fit]
56 | O=C(CNC(=O)c1ccc(-c2ccccc2)cc1)Nc1ccc(S(=O)(=O)Nc2ncccn2)cc1 | inconclusive: 50.1 µM [inhibitor, partial curve, poor fit]
57 | CCCCNC(=O)Cn1c(SCc2cccc(Cl)c2)nc2ccncc21 | inactive
58 | Cc1ccc(C(C)C)c(OC(C)C(=O)NCC2(N(C)C)CCCCC2)c1 (centres undefined) | inactive
59 | Cc1ccccc1CN1C(=O)c2ccccc2S(=O)(=O)c2ccc(C(=O)OCC3CCCO3)cc21 (centres undefined) | inactive
60 | Cc1cc(N)c(NC2=CC(=O)CC(C)(C)C2)cc1C | inconclusive: 35.5 µM [inhibitor, partial curve, poor fit]
61 | Cc1onc(-c2c(F)cccc2Cl)c1C(=O)OCn1nnc2ccccc2c1=O | inconclusive: 39.8 µM [inhibitor, single point]
62 | CCOC(=O)Cn1c(=O)oc2cc(S(=O)(=O)NCC3CCCO3)ccc21 (centres undefined) | inconclusive: 2.24 µM [inhibitor, partial curve, poor fit]
63 | CCOc1ccc(CCNC(=O)c2cnc3sc(N4CCCC4)nn3c2=O)cc1 | inactive
64 | O=C(NCCCN1CCOCC1)c1coc2ccccc2c1=O | inconclusive: 28.2 µM [inhibitor, partial curve, poor fit]
